Laboratory results: PubChem BioAssay AID256 (DTP/NCI, 2004)
The list is a part of this screen's results and no random one: it is rich in T/C values a quarter to a half above the control, in often repeated tests (any T/C) and in doses without a T/C. Further doses and runs are listed elsewhere. T/C is the treated group as % of the vehicle group. Some entries give survivors of the animals treated and no T/C: the source files T/C as zero there, which appears to mark a toxic dose or a test without result, not a measured value. Some survivor counts are full or nearly so, which does not show that the dose was tolerated: survival well below the control is almost never listed, so the zero probably covers shortened survival too. Counts of survivors are from the toxicity check (mostly the fifth day) where no day follows; animals may have died later. Schedules are NCI's codes, taken here to give the interval after Q, in days (D) or hours (H), and the number of doses after X. Some entries were tested several times; their values stand side by side, smallest first. For survival time, the PubChem record calls one and a half times the control and up active, and a quarter to a half above the control has no call in these data; cut-offs in other NCI protocols can differ. Some T/C values are followed by the survivors on the day toxicity was checked, most often the fifth; without a count, all were alive then.

Tested on: CD2F1 mice, L1210 leukemia ip, survival T/C
Test: NCI In Vivo Anticancer Drug Screen. Data for tumor model L1210 Leukemia (intraperitoneal) in CD2F1 (CDF1) mice
Settings: T/C endpoint: mean survival time, higher T/C = longer survival
Method in brief: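 Activity against a transplanted murine tumor was judged by comparing the compound group with a vehicle group. The outcome in the treated animals was divided by that in the controls.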

[1] = dose: 100.0 mg/kg/injection, schedule: Q04DX002 (ip), vehicle: saline with Tween-80
[2] = dose: 200.0 mg/kg/injection, schedule: Q04DX002 (ip), vehicle: saline with Tween-80
[3] = dose: 200.0 mg/kg/injection, schedule: Q01DX009 (ip), vehicle: saline with Tween-80
[4] = dose: 400.0 mg/kg/injection, schedule: Q01DX009 (ip), vehicle: saline with Tween-80
[5] = dose: 400.0 mg/kg/injection, schedule: Q04DX003 (ip), vehicle: saline with Tween-80
[6] = dose: 100.0 mg/kg/injection, schedule: Q04DX003 (ip), vehicle: saline with Tween-80
[7] = dose: 200.0 mg/kg/injection, schedule: Q04DX003 (ip), vehicle: saline with Tween-80
[8] = dose: 50.0 mg/kg/injection, schedule: Q04DX003 (ip), vehicle: saline with Tween-80
[9] = dose: 100.0 mg/kg/injection, schedule: Q01DX005 (ip), vehicle: distilled water + Tween-80
[10] = dose: 400.0 mg/kg/injection, schedule: Q01DX001 (ip), vehicle: saline with Tween-80

## COc1cc(N(CCCl)CCCl)c(OC)cc1/C=N\Nc1nnc(C)n1N
dose: 11.0 mg/kg/injection, schedule: Q01DX015 (ip), vehicle: saline
  T/C: 127 % of control
dose: 18.0 mg/kg/injection, schedule: Q01DX015 (ip), vehicle: saline
  T/C: 125 % of control
dose: 30.0 mg/kg/injection, schedule: Q01DX015 (ip), vehicle: saline
  T/C: 138 % of control [5 of 6 alive]
dose: 50.0 mg/kg/injection, schedule: Q01DX015 (ip), vehicle: saline
  survivor count: 5 of 6

## CCCCCCCCCCCCCCCC1CCCC(C)N1 (centres undefined)
[1]
  survivor count: 0 of 3
[2]
  survivor count: 0 of 3
dose: 400.0 mg/kg/injection, schedule: Q04DX002 (ip), vehicle: saline with Tween-80
  survivor count: 0 of 3 and 1 of 3

## C#CCCCCCC#[C][Hg][C]#CCCCCCC#C.C#CCCCCCC#[C][Hg][C]#CCCCCCC#C
dose: 75.0 mg/kg/injection, schedule: Q01DX009 (ip), vehicle: saline
  survivor count: 5 of 6
dose: 300.0 mg/kg/injection, schedule: Q01DX009 (ip), vehicle: saline
  survivor count: 0 of 6

## CC(=O)Nc1ccccc1.[Hg]
dose: 6.25 mg/kg/injection, schedule: Q01DX009 (ip), vehicle: saline with Tween-80
  survivor count: 5 of 6
dose: 12.5 mg/kg/injection, schedule: Q01DX009 (ip), vehicle: saline with Tween-80
  survivor count: 0 of 6
dose: 25.0 mg/kg/injection, schedule: Q01DX009 (ip), vehicle: saline with Tween-80
  survivor count: 0 of 6
dose: 25.0 mg/kg/injection, schedule: Q04DX002 (ip), vehicle: saline with Tween-80
  survivor count: 0 of 3
dose: 50.0 mg/kg/injection, schedule: Q04DX002 (ip), vehicle: saline with Tween-80
  survivor count: 0 of 3
[1]
  survivor count: 0 of 3

## C=CCOCCC#N
[3]
  survivor count: 0 of 6
[4]
  survivor count: 3 of 6

## C[n+]1cccc(C(=O)c2ccccc2)c1
dose: 150.0 mg/kg/injection, schedule: Q01DX001 (ip), vehicle: other
  survivor count: 3 of 6
dose: 300.0 mg/kg/injection, schedule: Q01DX001 (ip), vehicle: other
  survivor count: 0 of 6

## NS(=O)(=O)c1ccc(Cl)c(Cl)c1
[4]
  survivor count: 3 of 6

## O=C(CCl)Nc1cccc2c1CCCC2
[5]
  survivor count: 3 of 6

## COc1cccc2c1C(=O)c1c(O)c3c(c(O)c1C2=O)C[C@@](O)(C(=O)CN1CCOCC1)C[C@@H]3OC1CC(N)C(O)C(C)O1 (some centres undefined)
dose: 3.13 mg/kg/injection, schedule: Q04DX003 (ip), vehicle: water
  survivor count: 6 of 6
dose: 100.0 mg/kg/injection, schedule: Q04DX003 (ip), vehicle: water
  survivor count: 6 of 6

## CC1NC(=O)OC1(C)C(C)(C)C (centres undefined)
[6]
  survivor count: 0 of 6
[7]
  survivor count: 0 of 6
[5]
  survivor count: 0 of 6

## COc1ccc2[nH]c(=O)c3c(c2c1)CCC(OC(=O)c1ccccc1)C3 (centres undefined)
dose: 100.0 mg/kg/injection, schedule: Q04DX003 (ip), vehicle: saline
  survivor count: 1 of 6
dose: 200.0 mg/kg/injection, schedule: Q04DX003 (ip), vehicle: saline
  survivor count: 0 of 6
dose: 400.0 mg/kg/injection, schedule: Q04DX003 (ip), vehicle: saline
  survivor count: 0 of 6

## Nc1nc(F)nc2c1ncn2C1OC(CO)C(O)C1O (centres undefined)
dose: 156.0 mg/kg/injection, schedule: Q01DX005 (ip), vehicle: saline with Tween-80
  T/C: 149 % of control

## O=C(O)c1cc[c]([Hg][S]c2ncnc3nc[nH]c23)cc1
dose: 16.5 mg/kg/injection, schedule: Q01DX009 (ip), vehicle: saline sonified
  T/C: 132 % of control
dose: 25.0 mg/kg/injection, schedule: Q01DX009 (ip), vehicle: saline sonified, evaluated on day 20
  T/C: 136 % of control
dose: 25.0 mg/kg/injection, schedule: Q01DX009 (ip), vehicle: saline sonified, evaluated on day 30
  T/C: 135 % of control
dose: 50.0 mg/kg/injection, schedule: Q01DX009 (ip), vehicle: saline sonified
  T/C: 136 % of control
[8]
  T/C: 129 % of control
dose: 75.0 mg/kg/injection, schedule: Q04DX003 (ip), vehicle: saline sonified
  survivor count: 2 of 6
[7]
  survivor count: 0 of 6

## c1ccc(-c2nncnn2)cc1
[7]
  survivor count: 1 of 6
[5]
  survivor count: 0 of 6

## CCCCCC(=O)/C=C/Sc1n[nH]c(=O)[nH]c1=O
[9]
  survivor count: 0 of 6
dose: 200.0 mg/kg/injection, schedule: Q01DX005 (ip), vehicle: distilled water + Tween-80
  survivor count: 0 of 6

## Nc1cc(C(F)(F)F)ccc1/C(=C/c1ccc(Cl)cc1)C(=O)O
dose: 300.0 mg/kg/injection, schedule: Q04DX003 (ip), vehicle: saline
  survivor count: 1 of 6

## CN1CCCC(OC(=O)N(C)C)C1 (centres undefined)
dose: 400.0 mg/kg/injection, schedule: Q01DX009 (ip), vehicle: saline
  survivor count: 3 of 6

## CC(C)(C)c1ccccc1O[Si](C)(C)C
[3]
  survivor count: 2 of 6
[5]
  survivor count: 5 of 6

## COc1cc(C(=O)N/N=C/c2ccc(N(C)C)cc2)cc(OC)c1OC
[4]
  survivor count: 0 of 6

## CN(C)CCC(=O)c1cccc2ccccc12
dose: 200.0 mg/kg/injection, schedule: Q01DX001 (ip), vehicle: saline with Tween-80
  survivor count: 0 of 6
[10]
  survivor count: 0 of 6

## CC(=O)OC1CC2CC(C1C)C2(C)C (centres undefined)
[3]
  survivor count: 3 of 6
[4]
  survivor count: 0 of 6

## COC(=O)c1cn[nH]c1/N=N/N(C)C
dose: 200.0 mg/kg/injection, schedule: Q01DX009 (ip), vehicle: other
  T/C: 129 % of control

## CCOC(=S)SCC(=O)O
[10]
  survivor count: 2 of 3

## O=[N+]([O-])c1ccc(Cl)c2ncccc12
[5]
  survivor count: 1 of 3

## CCOc1ccc2c(c1)c(C)cc(C)[n+]2CC
dose: 25.0 mg/kg/injection, schedule: Q04DX003 (ip), vehicle: saline with Tween-80
  survivor count: 3 of 3
[8]
  survivor count: 0 of 3
[6]
  survivor count: 0 of 3

## O=S1Cc2ccccc2C1
[7]
  survivor count: 5 of 6
[5]
  survivor count: 0 of 6

## COc1ccc(Nc2ncnc3c2ncn3C2OC(CO)C(O)C2O)cc1 (centres undefined)
dose: 50.0 mg/kg/injection, schedule: Q01DX005 (ip), vehicle: distilled water + Tween-80
  survivor count: 1 of 6
[9]
  survivor count: 0 of 6

## O=C(O)C(Br)CC(Br)C(=O)O (centres undefined)
dose: 200.0 mg/kg/injection, schedule: Q01DX009 (ip), vehicle: saline
  survivor count: 1 of 3

## Cc1ccc(NNC(N)=O)cc1
dose: 100.0 mg/kg/injection, schedule: Q01DX001 (ip), vehicle: Klucel (hydroxypropylcellulose) (HPC)
  survivor count: 1 of 3
dose: 200.0 mg/kg/injection, schedule: Q01DX001 (ip), vehicle: Klucel (hydroxypropylcellulose) (HPC)
  survivor count: 0 of 3
dose: 400.0 mg/kg/injection, schedule: Q01DX001 (ip), vehicle: Klucel (hydroxypropylcellulose) (HPC)
  survivor count: 0 of 3

## C/C=C(\C)C(=O)OC1C(C)C2(O)C(C=C(CO)CC3(O)C(=O)C(C)=CC32)C2C(C)(C)C12OC(=O)CCCCCCCCC (centres undefined)
dose: 500.0 micrograms/kg/injection, schedule: Q01DX009 (ip), vehicle: saline + alcohol
  survivor count: 1 of 6

## CC1CN(Cl)C(=O)N(Cl)C1=O (centres undefined)
dose: 75.0 mg/kg/injection, schedule: Q01DX001 (ip), vehicle: saline
  survivor count: 0 of 6
dose: 150.0 mg/kg/injection, schedule: Q01DX001 (ip), vehicle: saline
  survivor count: 0 of 6
dose: 300.0 mg/kg/injection, schedule: Q01DX001 (ip), vehicle: saline
  survivor count: 0 of 6

## NC(=O)OCCc1c2ccccc2nc2ccccc12
[2]
  survivor count: 3 of 3
